Hit rate of the full screen: of about 340,000 compounds, about 170 (0.05%) were called active. This list was built around the results that the source calls inconclusive (neither active nor inactive); the mix of calls is not that of the screen. Calls follow the shape of the dose curve; as a rule, active = well fitted inhibition curve with a large enough effect in the signal ratio, with a control signal flat (not every such curve was filed as active); inconclusive = small, poorly fitted or top-dose-only effect, or effect the other way, or a change in a side signal; inactive = flat fitted curve, though single readings scatter; the % refers to the signal ratio. A potency beside an inconclusive call is a rough fit, not a confirmed value.
Test: qHTS Assay to Find Inhibitors of Chronic Active B-Cell Receptor Signaling;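 as to activity change, negative = inhibition: plate controls were basal doxycycline-induced cells for no effect and cells given 10 µM MG132 for full effect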
Details: ABC-DLBCL IkBa-CBG/CBR reporter, luminescence ratio (green luciferase fused to IkBa over red control in TMD8 lymphoma cells), 4 h; activity change, negative = inhibition: at 46.1 µM (top of the series)
How it was run: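 TMD8 human ABC-DLBCL cells with doxycycline-inducible IκBα–green luciferase fusion and unfused red luciferase, in 0.5% FBS medium; compounds up to 46 uM, 4 h at 37C. Green/red luminescence ratio, filter-overlap corrected, fitted to concentration-response curves.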
For `COCc1ccc(CN2CCCCC2C(=O)Nc2ccc(Oc3ccccc3)nc2)o1` (centres undefined), the activity change, negative = inhibition was inconclusive: 9.14%.
In the case of `N/C(=N\OC(=O)c1ccco1)c1cccc(Br)c1`, the Potency is reported as inconclusive: 0.58 µM [rising, full curve, poor fit].
In the case of `CC(=O)NNC(=O)c1csc(Cc2c(Cl)sc3ccc(Cl)cc23)n1`, the Potency is reported as inconclusive: 7.08 µM [falling, partial curve].
For `O=C(CSc1nnc(-c2cccnc2)s1)Nc1cccc(C(=O)O)c1`, the Potency was inconclusive: 18.4 µM [falling, partial curve].
For `CCOC(=O)CSc1nc2ccc(C)cc2cc1C#N`, the “activity change, negative = inhibition” value was inactive: 21.1%.
With `CC(C)[C@@H](COc1ccccc1)N1CCN(Cc2ccccc2)CCC1=O` the activity change, negative = inhibition was inconclusive: 7.43%.
For `N#CC(C#N)=C/C=C(\Nc1ccc(Cl)cc1)c1ccc(Cl)cc1`, the activity change, negative = inhibition was inconclusive: -12.8%.
In the case of `O=C(Nc1ccccc1)c1ccc(-c2ccccc2C(F)(F)F)o1`, the Potency is reported as inconclusive: 29.1 µM [falling, partial curve, poor fit].
For `COc1cc(NC(=O)CSc2nc3nc(C)c(Cc4ccc(C)cc4)c(C)n3n2)cc(OC)c1`, the Potency was inconclusive: 6.31 µM [falling, single point].
With `CC1(/[N+]([O-])=C/c2ccccc2F)CCCCC1=O` (centres undefined) the activity change, negative = inhibition was inconclusive: -5.86%.
With `S=c1[nH]cnc2scc(-c3ccccc3)c12` the “activity change, negative = inhibition” value was inactive: 0.757%.
With `Cc1cc(C)nc(NC(=O)/C=C/c2ccccc2Cl)n1` the Potency was inconclusive: 14.6 µM [falling, partial curve].
For `Cc1ccc(CN2CCC(c3cc(-c4ccc(Cl)cc4)n[nH]3)CC2)cc1`, the “activity change, negative = inhibition” value was inactive: -0.775%.
For `CCOC(=O)N1CCC(Nc2cccc(SC)c2)CC1`, the activity change, negative = inhibition was inconclusive: -5.59%.
With `Cc1ccc(N2C(=O)C3ON(c4ccccc4)C(c4ccncc4)C3C2=O)cc1` (centres undefined) the activity change, negative = inhibition was inconclusive: -4.19%.
In the case of `CN1CCC2(CC1)Nc1nc(SCc3ccc(Cl)cc3)nn1C1=C2CN(C)CC1`, the activity change, negative = inhibition is reported as inconclusive: -18.2%.
With `CC(=O)Oc1ccc2c(=O)oc(-c3ccc([N+](=O)[O-])cc3)nc2c1` the activity change, negative = inhibition was inconclusive: 245%.
For `Cn1c(NC(=O)C2CCCO2)cc(=O)n(C)c1=O` (centres undefined), the “activity change, negative = inhibition” value was inactive: 2.35%.
In the case of `COc1cccc(-n2c(SCC(=O)NC3CCCCC3)nc3n[nH]c(C)c3c2=N)c1`, the Potency is reported as inconclusive: 7.94 µM [falling, partial curve].
In the case of `CN(C)S(=O)(=O)c1ccc(NC(=O)CSc2nc3ccccc3n2-c2ccccc2)cc1`, the activity change, negative = inhibition is reported as inconclusive: 10.5%.
In the case of `Cc1cc(=O)[nH]c(SCc2cc(=O)n3nc(C)sc3n2)n1`, the activity change, negative = inhibition is reported as inconclusive: -14%.
With `CNC(=O)N(O)C1N(C)C(=O)N(Cc2ccccc2)C1(C)C` (centres undefined) the activity change, negative = inhibition was inconclusive: 0.807%.
In the case of `CC(=O)c1sc(NC(=O)COc2ccc(Cl)cc2C)nc1C`, the activity change, negative = inhibition is reported as inconclusive: -2.56%.
In the case of `Clc1nssc1=Nc1ccc(Br)cc1`, the Potency is reported as inconclusive: 35.5 µM [falling, single point].
In the case of `CCOc1cc(-c2noc(CCC(=O)NCC3CCCO3)n2)ccc1OC` (centres undefined), the activity change, negative = inhibition is reported as inconclusive: 8.53%.
In the case of `CC(Oc1ccccc1)C(=O)N1CCN=C1SCc1ccccc1` (centres undefined), the “activity change, negative = inhibition” value is reported as inactive: -1.95%.
In the case of `Cc1c(NC(=O)CSc2ccccn2)c(=O)n(-c2ccccc2)n1C`, the activity change, negative = inhibition is reported as inconclusive: 5.5%.
For `O=C(Nc1ccc(Br)cc1)c1cccc(S(=O)(=O)Nc2cnc3ccccc3c2)c1`, the activity change, negative = inhibition was inconclusive: -8.81%.
In the case of `Cc1cc(=O)oc2cc(OCC3CC(c4ccc(N(C)C)cc4)=NO3)ccc12` (centres undefined), the activity change, negative = inhibition is reported as inconclusive: -0.376%.
In the case of `FC(F)(F)COc1ccc(-c2nnc(SCc3ccccc3)o2)cn1`, the activity change, negative = inhibition is reported as inconclusive: 0.303%.
In the case of `O=C(Nc1ccc(F)cc1F)c1cc2n(n1)C(C(F)(F)F)C1CCCCC1N2` (centres undefined), the Potency is reported as inconclusive: 11.6 µM [rising, partial curve, poor fit].
With `CC(C)COC(=O)c1cccc2c1-c1ccccc1/C2=N\O` the Potency was inconclusive: 20.6 µM [activator, partial curve, poor fit].
For `COCCN(Cc1nnc(-c2cccs2)o1)C(=O)CN1C(=O)NC2(CCCCC2)C1=O`, the “activity change, negative = inhibition” value was inactive: -1.35%.
With `O=C(CCCc1c[nH]c2ccccc12)NCc1ccccc1F` the activity change, negative = inhibition was inconclusive: -23.2%.
With `Cc1ccc(-c2onc3ccc(Br)cc23)cc1` the activity change, negative = inhibition was inconclusive: 2.95%.
In the case of `O=C(Nc1ccccc1)C1COc2ccccc2O1` (centres undefined), the activity change, negative = inhibition is reported as inconclusive: 4.13%.
With `CCOC(=O)c1c(NC(=O)c2ccc(S(=O)(=O)N(CCOC)CCOC)cc2)sc2c1CC(C)(C)NC2(C)C` the “activity change, negative = inhibition” value was inactive: 3.1%.
In the case of `COc1ccc(O)c(/C=N/NC(=O)c2c(C)nnn2-c2nonc2N)c1`, the “activity change, negative = inhibition” value is reported as inactive: 4.38%.
With `COc1cc(/C=N/Nc2nc(Nc3ccc(C)cc3)nc(-n3nc(C)cc3C)n2)cc(OC)c1OC` the activity change, negative = inhibition was inconclusive: -0.438%.
For `Cc1ccccc1NC(=O)CCN1CCN(Cc2ccccc2)CC1`, the activity change, negative = inhibition was inconclusive: 10.1%.
In the case of `CCCCCCCN1CCC(=O)N([C@H](CO)Cc2ccccc2)CC1`, the Potency is reported as inconclusive: 3.16 µM [falling, single point].
With `O=C(COc1ccccc1Cl)NCCCNC(=O)c1ccco1` the activity change, negative = inhibition was inconclusive: -11.3%.
In the case of `Cc1c(/C=N\NC(=O)c2csc3ccccc23)cnn1C`, the “activity change, negative = inhibition” value is reported as inactive: -28.7%.
In the case of `CCOc1ccc(-c2noc(CCCC(=O)NC3CCCCC3)n2)cc1OC`, the Potency is reported as inconclusive: 12.6 µM [falling, partial curve].
With `O=C(CN1CCN(CC(=O)Nc2ccccc2Cl)CC1)Nc1ccc2c(c1)OCCO2` the Potency was inconclusive: 10 µM [falling, single point].
With `Cc1nc(SCc2nc3ccc(C(=O)c4ccccc4)cc3[nH]2)c2oc3ccccc3c2n1` the “activity change, negative = inhibition” value was inactive: -4.45%.
In the case of `COc1ccc(/C=N/NC(=O)c2ccccc2O)cc1Cn1cc(Cl)cn1`, the Potency is reported as inconclusive: 11.2 µM [falling, partial curve].
With `CCOc1ccc(S(=O)(=O)Nc2cccc(OC)c2)cc1` the Potency was inconclusive: 0.731 µM [falling, full curve, poor fit].
For `O=C(NCc1cccs1)c1nc2c(nnn2Cc2ccccc2Cl)c(=O)[nH]1`, the Potency was inconclusive: 6.51 µM [rising, full curve].
In the case of `COc1ccc2cc3cc(C(=O)NCc4ccc5c(c4)OCO5)oc3nc2c1`, the “activity change, negative = inhibition” value is reported as inactive: -15.9%.
In the case of `Cc1ccoc1C(=O)NCc1occc1C(=O)O`, the Potency is reported as inconclusive: 15.8 µM [falling, single point].
With `Cc1cc(C)n2nc(C(=O)Nc3cccc(S(=O)(=O)N4CCOCC4)c3)nc2n1` the activity change, negative = inhibition was inconclusive: 1.64%.
For `CCN(CC)S(=O)(=O)c1ccc(NC(=S)NC(=O)C(C)C)cc1`, the activity change, negative = inhibition was inconclusive: 1.39%.
With `C=CCN=C1CCCc2c1[nH]c1ccc(C)cc21` the Potency was inconclusive: 22.4 µM [falling, partial curve, poor fit].
With `CC(C)CN(C(=O)COC(=O)Cc1ccc(Cl)cc1)c1c(N)n(Cc2ccccc2)c(=O)[nH]c1=O` the activity change, negative = inhibition was inconclusive: 12.7%.
In the case of `CCOC(=O)c1cnc(SCc2nc(N)nc(Nc3ccc(OC)cc3)n2)nc1N`, the activity change, negative = inhibition is reported as inconclusive: 1.97%.
In the case of `COc1ccccc1NC(=O)COC(=O)CNC(=O)c1ccc(OC)c(OC)c1`, the activity change, negative = inhibition is reported as inconclusive: 6.82%.
With `COc1cc(OC)cc(C(=O)NCC(=O)NCCN2C(=O)S/C(=C\c3ccccc3Cl)C2=O)c1` the Potency was inconclusive: 32.6 µM [falling, partial curve, poor fit].
In the case of `CCCc1nc(SCC(=O)Nc2cc(C)on2)c2ccccc2n1`, the Potency is reported as inconclusive: 11.2 µM [falling, partial curve].
With `CC(C)(C)CC(C)(C)NC(=O)CSCC(=O)Nc1ccc2ccccc2c1` the “activity change, negative = inhibition” value was inactive: 12.5%.
With `O=C(CNC(=O)c1cccs1)N/N=C/c1ccco1` the activity change, negative = inhibition was inconclusive: -15.3%.
With `CC1=NN(c2nc(-c3ccc(Cl)cc3)cs2)C(=O)C1` the activity change, negative = inhibition was inconclusive: 5.11%.
For `CC(=O)c1ccc(Sc2nnc(C)s2)c([N+](=O)[O-])c1`, the Potency was inconclusive: 11.2 µM [falling, partial curve].
For `CC1CN(S(=O)(=O)c2ccc(C(=O)NCCCn3ccnc3)cc2)CC(C)O1` (centres undefined), the “activity change, negative = inhibition” value was inactive: 6.48%.
For `CCOC(=O)N1CCN(C(=O)c2ccccc2N(C)S(C)(=O)=O)CC1`, the activity change, negative = inhibition was inconclusive: 2.15%.
In the case of `O=C(NCc1ccccc1OC(F)(F)F)C1CCC(=O)N(Cc2ccccn2)C1` (centres undefined), the “activity change, negative = inhibition” value is reported as inactive: -3.93%.
For `Cc1ccc(-n2c(C)cc(C(=O)CN3CCOCC3)c2C)cc1C`, the “activity change, negative = inhibition” value was inactive: -0.0693%.
For `CC(C)COC(=O)c1ccc2c(c1O)C(=O)c1ccccc1C2=O`, the Potency was inconclusive: 1.03 µM [rising, full curve].
In the case of `CNC(=S)N/N=C(\C)c1cccc([N+](=O)[O-])c1`, the Potency is reported as inconclusive: 20.6 µM [falling, single point].
For `CC(NS(=O)(=O)c1ccccc1)C(=O)NCc1ccco1` (centres undefined), the activity change, negative = inhibition was inconclusive: 4.44%.
For `Cc1ccc(C(=O)Nc2ccc(O)c(C(=O)O)c2)o1`, the Potency was inconclusive: 23.1 µM [falling, partial curve].
In the case of `O=C(NCc1ccco1)c1cc([N+](=O)[O-])ccc1N1CCCCC1`, the “activity change, negative = inhibition” value is reported as inactive: 1.13%.
For `COc1ccc2nc(C)cc(Sc3nc4ccccc4s3)c2c1`, the Potency was inconclusive: 17.8 µM [cytotoxic, partial curve].
In the case of `CN1C(=O)C(=O)/C(=C(/O)c2ccc(Br)cc2)C1c1ccc(Cl)cc1` (centres undefined), the “activity change, negative = inhibition” value is reported as inactive: 4.92%.
For `CCOc1ccc(S(=O)(=O)N(CC)CC(=O)NCc2cccnc2)cc1`, the activity change, negative = inhibition was inconclusive: 8.47%.
In the case of `CNc1ccc([N+](=O)[O-])cc1-c1nc2ccccc2[nH]c1=O`, the activity change, negative = inhibition is reported as inconclusive: -6.51%.
With `COC(=O)[C@@]12CCCCN1[C@H](c1ccc(-c3ccc4c(c3)OCO4)cc1)[C@H]1C(=O)N(C)C(=O)[C@H]12` the “activity change, negative = inhibition” value was inactive: -0.117%.
With `Cc1cccc(C(=O)N[C@H](C(=O)Nc2nc3ccccc3[nH]2)C(C)C)c1` the Potency was inconclusive: 7.94 µM [falling, partial curve, poor fit].
In the case of `O=c1c(OC2OC(CO)C(O)C(O)C2OC2OC(CO)C(O)C(O)C2OC2OC(CO)C(O)C(O)C2O)c(-c2ccc(O)c(O)c2)oc2cc(O)cc(O)c12` (centres undefined), the “activity change, negative = inhibition” value is reported as inactive: 0.389%.

From PubChem BioAssay AID493014 (National Center for Advancing Translational Sciences (NCATS), 2011)
Potency is read from the fitted curve at half-maximal effect.
